Measured values published in the supplement of paper PMC5949888.
± gives the standard deviation of the averaged measurements. Most values lie at the floor of the assay. Slopes are relative: functional sequences can read slightly below zero.

Each substance was assayed on Saccharomyces cerevisiae PS128 hsf1 delta, HSF1(1-493) fusion (assay: growth estimate (transactivation domain function in HSF1 fusion, heat-shock survival) (a.u. (slope of normalised read count over time)); higher = stronger growth at 37°C, i.e. more transactivation activity). Conditions: library: random library.
With WHSTLGDSHTARCLADCRSI the growth estimate was under -0.25.
RSRRGVSYFVARSTSRLRLP gave a growth estimate of under -0.25.
TAKGTADRGTPPGHDKSYRQ showed a growth estimate of under -0.25.
Substance ALLF has a growth estimate of under -0.25.
FYSWAGKVFPSTRPNSIVGP showed a growth estimate of -0.246.
Substance PLGRPALLVRVFSLRLHLLN has a growth estimate of under -0.25.
LLKDEKPAIHLVGFARRNIF was tested, and the growth estimate was under -0.25.
CKYGTCAKWCDGSSVSWARW was tested, and the growth estimate was under -0.25.
RNKSR was tested, and the growth estimate was under -0.25.
For WSLSARVMKS, the growth estimate was under -0.25.
FFDVASETGS was tested, and the growth estimate was under -0.25.
With VIIWSVTLSLVVGGYRLNSR the growth estimate was under -0.25.
Substance KSMLTASYRK has a growth estimate of under -0.25.
Substance FSKK has a growth estimate of under -0.25.
With IATLEANKPSANAKGDTKPG the growth estimate was under -0.25.
RPKPFTFTPGDPVHRFR showed a growth estimate of under -0.25.
For AREVIGMDFDEWTCPVILHE, the growth estimate was -0.145.
Substance AVRRPTLSGRGLPANEWNIE has a growth estimate of under -0.25.
For AGRGVCRLFAASRLEYQPDV, the growth estimate was under -0.25.
Work on DVRDTGYPTRSVCVGL yielded a growth estimate of under -0.25.
With TEVFPVREVKPCLRHPCR the growth estimate was under -0.25.
Work on RGLRGFLWNARNWASFCLTA yielded a growth estimate of under -0.25.
SPR gave a growth estimate of -0.2486 ± 0.0024.
DEGGLSIGIIR gave a growth estimate of under -0.25.
IMQVREIFR gave a growth estimate of under -0.25.
With LHPAKYSARASVRATDWNSR the growth estimate was under -0.25.
NRGRKSRLRQRRSGTKTICP showed a growth estimate of under -0.25.
Work on HWVSMGS yielded a growth estimate of under -0.25.
LQYPSDPWALATGGMNNGQT gave a growth estimate of 0.037.
For EGTS, the growth estimate was under -0.25.
For IKWKVRPSPIP, the growth estimate was under -0.25.
QLEASRDTPGTLPNGPPSGS gave a growth estimate of under -0.25.
YSSSGSYIVRCVDFN was tested, and the growth estimate was under -0.25.
For FVEKGGTDSVSSIFAAEELA, the growth estimate was under -0.25.
In the case of RGPGTSKAEERSVGVEAASL, the growth estimate is reported as under -0.25.
YRLIGSTKGIWVPFLYYLLR was tested, and the growth estimate was under -0.25.
DEAYVHRCWLCPGMEERYLC gave a growth estimate of under -0.25.
Work on NRPPGIDEESSQGGAFVMPS yielded a growth estimate of under -0.25.
Substance PAVHHPRTSGGVAVVPKDVQ has a growth estimate of under -0.25.
Substance DRILPCHNDCHNVGSVFAVA has a growth estimate of under -0.25.
Substance NGYQVQPRNELRRDLGISSR has a growth estimate of under -0.25.
Substance VPTLREGGRDAFDWLY has a growth estimate of under -0.25.
EPAIDGG gave a growth estimate of under -0.25.
In the case of LVSDTTSCCQGVLMATHLLG, the growth estimate is reported as under -0.25.
For CLYSR, the growth estimate was under -0.25.
Substance QSLGLYSLDVVGLGMLSTLA has a growth estimate of under -0.25.
GGPTATDLEKRVDMVPLRSN was tested, and the growth estimate was under -0.25.
Work on CLGGNGRI yielded a growth estimate of under -0.25.
GRGRFSQGKLWRRRGDAIGS was tested, and the growth estimate was under -0.253.
YNSGRLGVGPSHPDGVVMAF showed a growth estimate of under -0.25.
For QLYTAMLAVCSSIVACDILS, the growth estimate was under -0.25.
Substance QINGG has a growth estimate of under -0.25.
With SPLSGLEHDLNYSKTIPQQH the growth estimate was under -0.25.
Substance QKSLIGSVAGVGPGLGGGPH has a growth estimate of under -0.25.
In the case of GSTTGGPARFTLCVYRKA, the growth estimate is reported as under -0.25.
Work on NAIYREQARPNGCITRKAGL yielded a growth estimate of under -0.25.
For SRGSICQYAVCRQE, the growth estimate was under -0.25.
In the case of RPKGLIAGMQ, the growth estimate is reported as under -0.25.
RKAENSLRTWESSGCFPYYE gave a growth estimate of under -0.25.
With RREAARWLIL the growth estimate was under -0.25.
For LFQLVQIIFRGPGTWVSALK, the growth estimate was under -0.25.
Work on TRSSICTQTLVNSRVYPTRA yielded a growth estimate of under -0.25.
PNTRRVWLLVGALSAPYARG gave a growth estimate of under -0.25.
Substance NSV has a growth estimate of under -0.25.
Substance YIRVIGISPGPVQQGGPVRT has a growth estimate of -0.25.
RITTRLAIFRSNKRISFA showed a growth estimate of -0.199.
YGWGLSLVFLESVMWIPRF was tested, and the growth estimate was -0.229.
SAAP showed a growth estimate of under -0.25.
AGLEWMRLSVCAWTKDYRVR showed a growth estimate of -0.247.
In the case of GLC, the growth estimate is reported as under -0.25.
PTAVFRVN was tested, and the growth estimate was under -0.25.
With HGLSLYDQSDPYCQRIVHSF the growth estimate was under -0.25.
For LRTADL, the growth estimate was under -0.25.
Substance VNGFCTMPLIVEPLTLMTKT has a growth estimate of under -0.25.
With VLRVREIAIP the growth estimate was under -0.25.
Work on GHGENPHKMSDPNNAG yielded a growth estimate of under -0.25.
Substance LNNEALPRPPGWRPHRLRSS has a growth estimate of under -0.25.
RVEGHDVLGWLMALMLQRRV showed a growth estimate of under -0.25.
AGRCVRWQCLSGLRLQAQSA showed a growth estimate of under -0.25.
For LVTS, the growth estimate was under -0.25.
With RAMMPKVYCARHGQASGTPY the growth estimate was under -0.25.
GRCFVVVSTIRRPTRIA was tested, and the growth estimate was -0.231.
Substance HEQVVSAINSIG has a growth estimate of under -0.25.
Work on EEAVHRPSLSLSPSP yielded a growth estimate of under -0.25.
With LSQPSCIN the growth estimate was under -0.25.
QRLEIRLCIMYNG showed a growth estimate of under -0.25.
VNYEEFYRRPYPSWSTRVCG was tested, and the growth estimate was under -0.25.
For VHRP, the growth estimate was under -0.25.
RSIFYVWVAIALRP showed a growth estimate of under -0.25.
For GIDRILMCRG, the growth estimate was under -0.25.
RFGL gave a growth estimate of under -0.25.
LDPLLRVPGIVTVRVWPGRS gave a growth estimate of under -0.25.
RRCSVLTTRIPYYVKRSPEV showed a growth estimate of under -0.25.
Substance AEIGR has a growth estimate of under -0.25.
LPVFRLFDGLSPLGRPGKVV gave a growth estimate of under -0.25.
Work on PLKRPGVAASGTLYGLNRVS yielded a growth estimate of under -0.25.
For IVPVYSYTAFSSGSTERRCE, the growth estimate was -0.234.
Substance GEGCYISPSGCSRAATST has a growth estimate of under -0.25.
DVSFCGVDGGQG was tested, and the growth estimate was under -0.25.
For VECDRTFSRRRVV, the growth estimate was under -0.25.
SMRRGNRGMWDVGTYHPPGR gave a growth estimate of under -0.25.
For LRESTVPRVRWAGRRRPLPG, the growth estimate was -0.246.
Work on IESPYGSFLLIGICREGNIA yielded a growth estimate of under -0.25.
In the case of GRRKELILQGTVATMSGSSP, the growth estimate is reported as under -0.25.
SSHSKSTNRRR was tested, and the growth estimate was under -0.25.
GRSAAHLTPAQRAG showed a growth estimate of under -0.25.
IAFRNIIMAHRTKCGLTQ was tested, and the growth estimate was under -0.25.
SETSLLTIRRTEASVRYRIG gave a growth estimate of under -0.25.
With SDSGLAKATLFVPTPTNREV the growth estimate was under -0.25.
Work on LMSLRRAYRPVEILML yielded a growth estimate of under -0.25.
For ILGTAHAQILHKHEVYARQH, the growth estimate was under -0.25.
Substance KCDHASPAHQG has a growth estimate of under -0.25.
RIKGVVELCVVGVKGTIRPT was tested, and the growth estimate was under -0.25.
Substance RLKTGLQSTEAQFIVGTGKV has a growth estimate of under -0.25.
With AFTVLSWNVNKSIPSMRGT the growth estimate was under -0.25.
AEHGLLSGTSTMLAQFPHSK gave a growth estimate of under -0.25.
In the case of GLRGCPPLKSEDVTSYTCST, the growth estimate is reported as under -0.25.
Work on LDREIIFGLNRTPWMLSAYE yielded a growth estimate of under -0.25.
Work on AKTEEAFGQENGTARVQRSV yielded a growth estimate of under -0.25.
DRSTMAAMALLGGKKGLSVR was tested, and the growth estimate was under -0.25.
TLILWLRSVKW showed a growth estimate of under -0.25.
For GMGILVSGSEVPKPFLNGTP, the growth estimate was under -0.25.
Work on SGTRGMLRFFRDKRSSEIIV yielded a growth estimate of under -0.25.
Work on MTGASPSKYMPEQRWP yielded a growth estimate of under -0.25.
With RRDRTYHSTGVMERLALRLF the growth estimate was under -0.25.
Substance PAPLTYVVGSDHETVRLMY has a growth estimate of under -0.25.
Substance ELIPASSSRWA has a growth estimate of under -0.25.
With WVCPIGTQLCKTRL the growth estimate was under -0.25.
Substance GRAFR has a growth estimate of under -0.25.
In the case of EVGCPGRRG, the growth estimate is reported as under -0.25.
Work on WIRVLHWSRLPSHRKGQSFA yielded a growth estimate of under -0.25.
In the case of LQKSWRFRWRGGGGGTQP, the growth estimate is reported as under -0.25.
Work on QARKDLEVGAVRSNE yielded a growth estimate of under -0.25.
Substance LSLILTRAMKVKSWDMNIVL has a growth estimate of under -0.25.
For SPPNIVKRFGIVTRVWACRR, the growth estimate was -0.246.
For DAI, the growth estimate was under -0.25.
For CTQQGKDSMGCRCGAPSSKV, the growth estimate was under -0.25.
Substance SHRDLGHGSV has a growth estimate of under -0.25.
In the case of NEHNMLDLMPSLISGRCNKR, the growth estimate is reported as under -0.25.
Work on PPSLVGLVWVPDRSININRR yielded a growth estimate of under -0.25.
GYRQIHTLVHALIRVRCERP gave a growth estimate of under -0.25.
Substance NHGFFSQI has a growth estimate of under -0.25.
Work on CTVYRAVPCRAIGWRWLCSV yielded a growth estimate of under -0.25.
For EPQFATSYCPSVHRVFGEYP, the growth estimate was under -0.25.
CFGLKVWRQSHLSL was tested, and the growth estimate was under -0.25.
HVFWASR was tested, and the growth estimate was under -0.25.
With LVLLWTALERAFKDIQRLAR the growth estimate was under -0.25.
In the case of SVENGWG, the growth estimate is reported as under -0.25.
In the case of DFA, the growth estimate is reported as under -0.25.
QQRRPDSRDENPRFSVVTLL was tested, and the growth estimate was under -0.25.
Work on HPG yielded a growth estimate of under -0.25.
Work on INVGFLAGHSGNVRTKPE yielded a growth estimate of under -0.25.
With KHGPLEALYRGGKAIKIQDS the growth estimate was under -0.25.
QRHDGYCDWGRLVRGCKSTA showed a growth estimate of under -0.25.
